The source of these data is patent publication US20230038761.

By UniProt entry, the sequences of proteins in these tests, tags left out.
UniProt A0A2K5X4G5, entry or part of it: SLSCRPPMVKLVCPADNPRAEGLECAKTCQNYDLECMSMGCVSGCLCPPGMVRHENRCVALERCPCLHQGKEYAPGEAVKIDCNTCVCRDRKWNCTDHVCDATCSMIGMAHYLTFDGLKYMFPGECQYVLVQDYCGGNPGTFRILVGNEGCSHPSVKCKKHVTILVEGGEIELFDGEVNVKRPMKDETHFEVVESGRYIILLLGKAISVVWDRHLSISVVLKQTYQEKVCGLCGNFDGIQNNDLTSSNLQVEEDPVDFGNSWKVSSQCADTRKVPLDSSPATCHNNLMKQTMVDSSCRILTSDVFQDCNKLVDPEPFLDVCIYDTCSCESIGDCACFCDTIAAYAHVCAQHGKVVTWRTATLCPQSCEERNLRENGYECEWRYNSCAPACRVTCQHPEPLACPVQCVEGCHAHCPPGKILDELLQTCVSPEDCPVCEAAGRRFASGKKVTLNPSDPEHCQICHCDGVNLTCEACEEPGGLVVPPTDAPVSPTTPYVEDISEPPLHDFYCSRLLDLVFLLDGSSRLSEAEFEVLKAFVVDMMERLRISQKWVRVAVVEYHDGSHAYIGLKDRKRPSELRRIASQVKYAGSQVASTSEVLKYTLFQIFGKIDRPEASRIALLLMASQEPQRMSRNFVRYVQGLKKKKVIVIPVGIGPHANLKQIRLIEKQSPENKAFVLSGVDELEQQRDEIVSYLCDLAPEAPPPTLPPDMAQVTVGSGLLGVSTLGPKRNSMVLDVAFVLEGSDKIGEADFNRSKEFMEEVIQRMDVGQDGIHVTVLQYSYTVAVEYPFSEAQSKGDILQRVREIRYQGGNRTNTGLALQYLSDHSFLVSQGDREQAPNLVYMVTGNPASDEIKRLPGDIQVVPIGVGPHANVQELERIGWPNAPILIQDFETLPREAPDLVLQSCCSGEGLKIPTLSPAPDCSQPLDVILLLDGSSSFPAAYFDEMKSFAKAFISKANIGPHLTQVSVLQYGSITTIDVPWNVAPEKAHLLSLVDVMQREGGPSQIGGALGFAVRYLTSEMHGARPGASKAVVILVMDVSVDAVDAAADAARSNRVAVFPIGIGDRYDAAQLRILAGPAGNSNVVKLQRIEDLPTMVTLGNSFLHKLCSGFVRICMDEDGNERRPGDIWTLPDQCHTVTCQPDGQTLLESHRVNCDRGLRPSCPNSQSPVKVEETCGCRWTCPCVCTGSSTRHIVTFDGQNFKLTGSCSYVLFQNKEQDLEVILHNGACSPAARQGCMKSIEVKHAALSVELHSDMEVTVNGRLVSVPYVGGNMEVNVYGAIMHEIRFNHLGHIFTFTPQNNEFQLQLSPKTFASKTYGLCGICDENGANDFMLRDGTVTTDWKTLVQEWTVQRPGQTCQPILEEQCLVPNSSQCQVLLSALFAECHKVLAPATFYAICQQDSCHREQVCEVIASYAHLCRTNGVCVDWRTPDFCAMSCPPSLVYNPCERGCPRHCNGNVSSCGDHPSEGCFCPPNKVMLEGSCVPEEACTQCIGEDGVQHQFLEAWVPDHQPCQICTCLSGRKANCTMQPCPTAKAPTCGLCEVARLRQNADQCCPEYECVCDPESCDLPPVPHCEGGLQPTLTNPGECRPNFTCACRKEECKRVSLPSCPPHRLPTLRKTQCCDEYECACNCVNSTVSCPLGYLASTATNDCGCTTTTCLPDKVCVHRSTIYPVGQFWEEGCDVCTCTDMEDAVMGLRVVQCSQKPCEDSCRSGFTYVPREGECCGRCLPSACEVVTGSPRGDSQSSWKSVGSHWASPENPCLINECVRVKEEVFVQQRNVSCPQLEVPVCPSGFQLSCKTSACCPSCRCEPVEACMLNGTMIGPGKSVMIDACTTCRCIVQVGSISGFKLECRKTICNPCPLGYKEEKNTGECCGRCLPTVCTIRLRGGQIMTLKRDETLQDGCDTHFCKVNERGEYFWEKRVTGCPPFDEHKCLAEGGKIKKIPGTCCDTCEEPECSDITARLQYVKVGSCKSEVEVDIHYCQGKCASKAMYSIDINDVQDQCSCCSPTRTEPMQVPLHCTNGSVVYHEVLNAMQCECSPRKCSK

No signal at the amounts used counts as a negative.

The target of data set [1] is von Willebrand factor (VWF) in plasma (Macaca fascicularis) (UniProt A0A2K5X4G5). Put plainly: inhibition of the protein. The conditions noted are these: in vivo, protein in an extract, protein details: endogenous cynomolgus monkey plasma VWF.
Data set [2] has as its target von Willebrand factor (VWF) in citrated plasma / whole blood (Homo sapiens) (UniProt P04275). Put plainly: inhibition of the protein. The conditions noted are these: all residues 2'-OMe in both strands, 3' idT on both strands, protein details: endogenous plasma VWF, dose not given here.

For GCCAGGGACCUAAGACACAUGUCCCUGGC [BT200], the “functional effect of the aptamer” value in data set [1] (all residues 2'-OMe, 5' PEG40K-NH, 3' idT (final t of SEQ 6), 24 h after 0.6 mg/kg s.c. BT200, baseline 137.4%, REAADS assay) is “active”. Consider “GCCAGGGACCUAAGACACAUGUCCCUGGC / ACAUGUGUCUUAGGUCCCUGGCT [BT200/BT101 duplex]”, for which the “functional effect of the aptamer” value in data set [1] (all residues 2'-OMe in both strands, BT200 5' PEG40K-NH, 3' idT on both strands, VWF activity returned to baseline within 5 min of i.v. BT101 (1, 3 or 10 mg/kg), variant of BT200) is listed as “not active”; in data set [2] (BT200 5' PEG40K-NH, REAADS VWF:Act, complete reversal of inhibition at 1:1 BT101, no further increase at 2:1, protein in an extract, variant of BT200), “not active”. Take “GCCAGGGACCUAAGACACAUGUCCCUGGC / ACAUGUGUCUUAGGUCCCUGGCT [BT100/BT101 duplex]”: the “functional effect of the aptamer” value in data set [2] (BT100 5' NH2, BT101 reverses BT100 inhibition completely at 1:1, PFA CADP-CT, protein in an …, variant of BT100) is on record as “not active”.
